“Also recorded” adds a separate entry of the source. For at least one compound, name, drawing or mass did not settle the structure.
Legend:
[1] = test system: rats; settings: 10 mg/kg; cited from earlier work
[2] = test system: ERK1; experiment: Western blot of phosphorylated ERK1 in hippocampus after EPM; assay type: in vivo, mouse; settings: 1 and 2 mg/kg p.o., mice sacrificed after EPM
[3] = test system: Akt; experiment: Western blot of phosphorylated Akt (Ser 473) in hippocampus; assay type: in vivo, mouse; settings: 1 to 10 mg/kg p.o.
[4] = test system: male Swiss Webster mice; experiment: Elevated plus-maze (EPM) behavioral study; assay type: in vivo, mouse
[5] = test system: ERK1/2; experiment: Western blot of phosphorylated ERKs in brain tissue after EPM; assay type: in vivo, mouse
[6] = test system: ERK1/2; settings: RAW 264.7 cells; cited from earlier work
[7] = test system: ERK2; experiment: Western blot of phosphorylated ERK2 in hippocampus after EPM; assay type: in vivo, mouse; settings: 1 and 2 mg/kg p.o., mice sacrificed after EPM
[8] = 1-10 mg/kg p.o. vs control (0 mg/kg), increase at 1 and 2 mg/kg
[9] = 1-10 mg/kg p.o. vs control, decrease at 1 and 2 mg/kg

## COc1cc(/C=C/c2ccc(O)cc2)cc(OC)c1 [pterostilbene]
[1]
  cognitive performance, particularly spatial memory: could improve
[2]
  ERK1 phosphorylation in hippocampal homogenates: marked reduction; also recorded: decrease
[3]
  phosphorylation state of Akt in hippocampus: no change; also recorded: almost unaltered
[4]; 1 mg/kg by oral gavage 60 min before 5 min EPM
  anxiolytic-like action in EPM: apparent
[4]; 2 mg/kg by oral gavage 60 min before 5 min EPM
  anxiolytic-like action in EPM: reached the maximum
[4]; 2 mg/kg pterostilbene p.o. vs 2 mg/kg diazepam i.p.
  effects in EPM compared with 2 mg/kg of diazepam: comparable effects
[4]; 10 mg/kg (highest dose) by oral gavage
  anxiolytic-like action in EPM: ineffective
[4]; 1-10 mg/kg p.o. vs control
  number of entries in the enclosed arms (NEEA): unaltered; also recorded: decreasing trend
[4]; [8]
  % permanence time in open arms (PTOA): significantly increased
  % traveled distance in open arms (TDOA): increase; also recorded: significantly increased
  number of entries in open arms (NEOA): significantly increased
[4]; [9]
  % permanence time in enclosed arms (PTEA): decreased; also recorded: decreasing trend
  % traveled distance in enclosed arms (TDEA): decreased; also recorded: decreasing trend
[4]; 1 and 2 mg/kg by oral gavage
  anxiolytic-like action in EPM: manifested anxiolysis
[4]; 5 and 10 mg/kg by oral gavage 60 min before 5 min EPM
  anxiolytic-like action in EPM: didn't show any anxiolytic effect; also recorded: declined
[5]; 5 and 10 mg/kg p.o.
  phosphorylation of ERKs in hippocampus: no significant effects
[5]; prefrontal cortex, data not shown
  phosphorylation of ERKs in the prefrontal cortex: no significant change
[6]
  activation of ERK1/2: block the activation
[7]
  ERK2 phosphorylation in hippocampal homogenates: mild decrease

— US9439875B2, “Anxiolytic effect of pterostilbene” (The United States of America, as represented by The …, priority 2011, dated 2016)
